# Percent effect of library compounds

Mtb glucose medium: 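Growth of Mycobacterium tuberculosis over 3 days (7H9 medium with glucose and tyloxapol); the read-out is not stated. Concentration: 50 µM. Higher reads as more growth inhibition (inferred: compounds with an IC50 in retests scored well above the rest). Size under these conditions: about 69,000 compounds, about 760 of them at 50% or above in at least one test.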
Mtb cholesterol medium: 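Growth of Mycobacterium tuberculosis over 4 days (cholesterol / DPPC medium with tyloxapol); the read-out is not stated. Compounds at 50 µM. The record gives no direction; compounds that gave an IC50 in retests scored well above the rest, so higher reads as more growth inhibition. Of about 69,000 compounds tested this way, about 370 (0.54%) reached 50% or more in at least one test.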

Values are the deposited “Percent Effect”, in %.
How 0% and 100% were set is not recorded. Most values in the screen are low, and negative values occur.
This is an unselected part of the compounds tested.
Two or more numbers in one place are separate tests of the same structure; such repeats can differ widely.

| structure | Mtb glucose medium | Mtb cholesterol medium |
|---|---|---|
| `Cc1cc(=O)n2nc(Oc3ccc(C#N)cc3Cl)sc2n1` | 1.393% | 13.17% |
| `Cc1cc(C(=O)N(C)S(=O)(=O)C(C)C)ccc1F` | -6.233% | -3.997% |
| `Cc1ccsc1CNC(=O)CSc1nnc[nH]1` | 1.886% | -20.83% |
| `Cc1ccc(C(=O)NS(=O)(=O)c2ccc3c(c2)OCCCO3)o1` | -1.792% & 8.862% | -2.881% |
| `O=C(CCc1nc2cccnc2[nH]1)Nc1ccc2c(c1)OCC(=O)N2` | -3.017% & 6.702% | 10.86% |
| `Cc1cnn(CC2CCCN2C(=O)c2csc(C(C)C)n2)c1` (configuration not stated) | -22.6% | 15.46% |
| `COc1cccc(Nc2nc(N3CCCC3)nc3c2CNCC3)c1.Cl` | 54.07% | 30.77% |
| `CCN1C(=O)CC[C@]12CC[C@@H](NC(=O)c1cnccn1)CC2` | -22.68% | -23.45% |
| `O=C(Nc1cn[nH]c1)c1ccncc1` | 10.68% | -12.4% |
| `Cc1cnn(CCNCc2csc(-c3ncccn3)n2)c1` | 6.029% | -5.952% |
| `COc1ccc(-c2nnsc2C(=O)N2CCC(C(N)=O)CC2)cc1` | 1.746% & 12.64% | 22.51% |
| `COCCN(Cc1sccc1C)c1nc(C)nc2sccc12` | 17.05% & -0.09492% | -4.571% & 11.06% |
| `CC1CN(C(=O)NCc2ccn(C)c2)CCN1CC(F)(F)F` (configuration not stated) | -3.206% | -8.728% & 9.567% |
| `Cc1nsc(NCCNS(=O)(=O)c2cccc(Cl)c2)n1` | 6.461% & 9.39% | 1.215% |
| `O=C(O)C(F)(F)F.O=C(O)C(F)(F)F.[H][C@@]12CCCO[C@]1([H])[C@H](Nc1ccccn1)CN(Cc1c(C)noc1C)C2` | 15.87% | -12.75% |
| `COc1ccc(Cl)cc1C(=O)N1C[C@H](C(C)C)[C@@H](N)C1` | 12.29% | 16.12% |
| `CC(c1cccc(-c2ccc(C(=O)O)cc2Cl)c1)N(C)C` (configuration not stated) | 14.28% | -8.568% |
| `Cc1ccccc1OCCn1cnc2oc(C)c(C(=O)O)c2c1=O` | -26.04% | -10.71% |
| `[H][C@]12CC[C@]([H])(CN(Cc3cccc(C)n3)C1)N(Cc1c(C)noc1C)C2=O` | -26.07% | -26.01% |
| `Cc1cc(-c2cnc(NCc3cccnc3)nc2C(C)(C)C)on1` | 26.47% | 3.799% |
| `CCc1nnc(CNC(=O)CCC2CCCN(C)C2)s1` (configuration not stated) | 33.39% | -6.551% |
| `c1ccc(-n2ccc(CN3CCCC(Cn4cncn4)C3)n2)cc1` (configuration not stated) | 43.33% | 9.331% |
| `CCn1cc(CN(C)S(=O)(=O)c2ccc(C(C)C)cc2)cn1` | 62.73% | 41.68% |
| `[H][C@@]12CCN(c3ncccn3)C[C@@]1([H])[C@H](C(=O)N(C)C)CCO2` | 31.42% & -4.682% | 2.982% |
| `C[C@]1(O)CN(Cc2cccc(C(=O)O)c2)CC[C@@H]1Oc1cccc(F)c1` | 42.05% | 11.04% |
| `CC(C)c1ncc2c(n1)CN(Cc1nc(-c3ccco3)no1)CC2` | -15.16% & -1.605% | -2.007% |
| `[H][C@@]12CN(Cc3ccccc3)CC[C@]1([H])N(C(C)=O)C[C@H]2c1ccsc1` | 23.77% | 11.27% |
| `CC(C)OCCN(C)C(C)c1cccc(S(N)(=O)=O)c1` (configuration not stated) | 1.443% | -21.74% |
| `Cc1ccc(C)c(S(=O)(=O)NC(=O)c2cccc3c2OCCO3)c1` | -15.98% | -21.01% |
| `CC(C)c1nnc(CN2CCCC(Cn3cncn3)C2)o1` (configuration not stated) | -24.09% | -2.975% |
| `CN(C)C(=O)CN1CCCC12CCCN(c1ncc(F)cn1)C2.O=C(O)C(F)(F)F` (configuration not stated) | -4.289% & -6.082% | -17.2% |
| `CCc1nnsc1C(=O)N(C)Cc1ccco1` | -1.472% | -3.736% |
| `N[C@@H]1CC[C@@H](NC(=O)c2ccccc2OC(F)(F)C(F)F)C1` | -7.513% & 2.588% | -2.574% |
| `Cc1cc(C(F)(F)F)nc(CNC(=O)CCn2cccn2)n1` | -0.4099% | 11.28% |
| `c1ccc(Oc2cc(CNCC3CNc4ccnn4C3)ccn2)cc1` (configuration not stated) | -4.866% | -24.06% |
| `Cn1nccc1-c1nc2c(cc1C(=O)O)CCN(C(=O)C1CC1)CC2.O=C(O)C(F)(F)F` | 25.21% & 2.971% | -18.58% |
| `COc1ccc(-c2cccc(CC3(C(=O)O)CCOCC3)c2)cc1` | 36.31% | 7.05% |
| `CCOCCC(=O)N1CCCC(c2cc(C(F)(F)F)[nH]n2)C1` (configuration not stated) | 16.63% | -1.311% |
| `COC(=O)c1ccc(N2CCN(C(=O)c3ccn(C)c(=O)c3)CC2)cc1` | -7.314% | 7.566% |
| `Cc1nnc2n1CCN(C(C)c1nnc(-c3cccs3)o1)C2` (configuration not stated) | 9.521% | -20.13% |
| `[H][C@@]12CCN(C(=O)C3CC3)[C@]1([H])C(=O)N(c1ccc(F)cc1)C(=O)N2` | -11.25% & -2.521% | 0.644% |
| `CNc1nccnc1C1CN(C(=O)c2c[nH]cn2)CCO1` (configuration not stated) | -11.29% | -31.5% |

Repeated from the top, 4 entries:

{"structure": "Cc1cc(=O)n2nc(Oc3ccc(C#N)cc3Cl)sc2n1", "Mtb glucose medium": 1.393, "Mtb cholesterol medium": 13.17}
{"structure": "Cc1cc(C(=O)N(C)S(=O)(=O)C(C)C)ccc1F", "Mtb glucose medium": -6.233, "Mtb cholesterol medium": -3.997}
{"structure": "Cc1ccsc1CNC(=O)CSc1nnc[nH]1", "Mtb glucose medium": 1.886, "Mtb cholesterol medium": -20.83}
{"structure": "Cc1ccc(C(=O)NS(=O)(=O)c2ccc3c(c2)OCCCO3)o1", "Mtb glucose medium": "-1.792 & 8.862", "Mtb cholesterol medium": -2.881}

Source: ChEMBL document CHEMBL3988442, “University of Dundee, Small-Polar-MMV Screening Library” (2021).